Laboratory results reported in paper PMC10180490, “New Indazol-Pyrimidine-Based Derivatives as Selective Anticancer Agents: Design, Synthesis, and In Silico Studies” (Molecules, 2023).

Key:
[1] = system: colorectal adenocarcinoma cells (Caco2); experiment: MTT cytotoxicity assay, Caco2; settings: Homo sapiens, Caco-2, 48 h, read-out: Cytotoxicity IC50 Caco2
Method: (§1) All of the synthesized compounds were screened for their cytotoxic effect against three different human cancer cells, namely breast cancer cells (MCF-7), lung cancer cells (A549), and colorectal adenocarcinoma cells (Caco2), using the MTT cytotoxic assay. […] Then, 3-[4,5-dimethylthiazol-2-yl]-2,5-diphenyl tetrazolium bromide (MTT) was added.

[2] = system: breast cancer cells (MCF-7); experiment: MTT cytotoxicity assay, MCF-7; settings: Homo sapiens, MCF7, 48 h, read-out: Cytotoxicity IC50 MCF-7
Method: as §1

[3] = Cytotoxicity toward normal cells MCF-10a; assay type: cell-based, human; settings: human, Cytotoxicity IC50 MCF-10a
[4] = system: mammary gland epithelial cell line MCF-10a; experiment: Cytotoxicity toward normal cells MCF-10a; assay type: cell-based, human

Work on `CN[C@@H]1C[C@H]2O[C@@](C)([C@@H]1OC)n1c3ccccc3c3c4c(c5c6ccccc6n2c5c31)C(=O)NC4` [Staurosporine, reference compound] yielded an IC50 [1] of 11.3 ± 0.56 µM, an IC50 [2] of 8.03 ± 0.38 µM and an IC50 [3] of 34.8 µM. For the same molecule, the “SI (selectivity index)” value ([4]; MCF-10a IC50 relative to MCF-7 IC50) was 4.34 and the IC50 ([4]; human) was 34.9 ± 1.73 µM.
